Measured values from publication PMC6630525.
No constants are given. Whether binding was seen depends on the method and setting. Some entries that bind do so weakly or less than the wild type. For part of these data: Sequences can lack the tags named with a protein. One block for each binder: values may come before it.

Key:
[1] = biological target: full-length Arabidopsis thaliana NAP1-Related Protein 2 (AtNRP2-His) (Arabidopsis thaliana) (UniProt Q8LC68); assay: SEC; analytical gel filtration, Superdex 200 10/300 GL, 4 °C, 20 mM Tris-HCl with 0.2, 0.5 or 2.0 M NaCl after dialysis into the same buffer; both purified
[2] = biological target: AtNRP2 NT/CT (AtNRP2 residues 14-223) (Arabidopsis thaliana) (UniProt Q8LC68); assay: crystal structure; AtNRP2 NT/CT, space group H32, 3.42 Å, two molecules in the asymmetric unit; molecular replacement with PDB 5DAY; both purified
[3] = biological target: AtNRP2 NT/CT (AtNRP2 residues 14-223) (Arabidopsis thaliana) (UniProt Q8LC68); assay: SEC; analytical gel filtration, Superdex 200 10/300 GL, 4 °C, 20 mM Tris-HCl with 0.2, 0.5 or 2.0 M NaCl after dialysis into the same buffer; both purified

binding [1]: binds
B1: full-length Arabidopsis thaliana NAP1-Related Protein 2 (AtNRP2-His) (protein, UniProt Q8LC68-2 1-256)
chain: MVTDKSKKAKTEEENVEQIDAELVLSIEKLQEIQDDLEKINEKASDEVLEVEQKYNVIRKPVYDKRNEIIKTIPDFWLTAFLSHPALGELLTEEDQKIFKYLSSLDVEDAKDVKSGYSITFSFNPNPFFEDGKLTKTFTFLEEGTTKITATPIKWKEGKGLANGVNHEKNGNKRALPEESFFTWFSDAQHKEDVEDEMQDEQVADIIKEDLWPNPLTYFNNDADEEDFDGDDDGDEEEKEGDSDEDDDEEDEVGEE

binding [2]: binds
binding [3]: binds
B2: AtNRP2 NT/CT (AtNRP2 residues 14-223) (domain or fragment, UniProt Q8LC68-2 14-223)
chain: ENVEQIDAELVLSIEKLQEIQDDLEKINEKASDEVLEVEQKYNVIRKPVYDKRNEIIKTIPDFWLTAFLSHPALGELLTEEDQKIFKYLSSLDVEDAKDVKSGYSITFSFNPNPFFEDGKLTKTFTFLEEGTTKITATPIKWKEGKGLANGVNHEKNGNKRALPEESFFTWFSDAQHKEDVEDEMQDEQVADIIKEDLWPNPLTYFNNDA
